Laboratory results published in patent publication US20180000964A1 (Genentech, published 2018).
These are yes or no findings as the source states them, for the method shown. Some binding calls cover weakened binding; strength is not graded here.

Tests used:
murine Glut1 (on cells) [1] = molecular target: T1, murine Glut1 (on cells) (murine, UniProt P17809 1-492); assay: immunohistochemistry of mouse cortical tissue 1 hour after 5 mg/kg i.v. dose (in vivo binding)
T1 construct: whole, on cells; also called glucose transporter 1; Slc2a1
T1 sequence (looked up): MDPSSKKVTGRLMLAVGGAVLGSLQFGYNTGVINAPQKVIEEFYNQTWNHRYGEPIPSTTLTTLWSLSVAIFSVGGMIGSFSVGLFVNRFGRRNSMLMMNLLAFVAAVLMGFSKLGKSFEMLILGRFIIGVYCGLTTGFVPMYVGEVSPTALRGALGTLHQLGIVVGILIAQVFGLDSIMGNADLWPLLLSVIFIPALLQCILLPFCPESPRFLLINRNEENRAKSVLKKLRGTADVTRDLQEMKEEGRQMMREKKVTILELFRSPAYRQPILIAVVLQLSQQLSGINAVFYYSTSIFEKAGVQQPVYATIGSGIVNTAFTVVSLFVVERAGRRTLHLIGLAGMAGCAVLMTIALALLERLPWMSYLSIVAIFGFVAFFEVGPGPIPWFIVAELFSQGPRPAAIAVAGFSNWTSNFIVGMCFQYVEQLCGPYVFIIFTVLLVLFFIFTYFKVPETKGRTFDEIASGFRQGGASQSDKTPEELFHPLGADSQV

murine Glut1 (on cells) [2] = molecular target: T1, murine Glut1 (on cells); assay: flow cytometry titration, HEK293 cells stably expressing Glut1
murine Glut1 (on cells) [3] = molecular target: T1, murine Glut1 (on cells); assay: flow cytometry, HEK293 cells expressing Glut1, PE-labelled secondary antibody
murine Glut1 (on cells) [4] = molecular target: T1, murine Glut1 (on cells); assay: flow cytometry, HEK293 cells transiently expressing murine Glut1
murine Glut1 (on cells) [5] = molecular target: T1, murine Glut1 (on cells); assay: flow cytometry, HEK293 cells stably expressing Glut1

- binding (murine Glut1 (on cells) [1]): binds
- binding (murine Glut1 (on cells) [2]): binds
- binding (murine Glut1 (on cells) [3]): binds
- binding (murine Glut1 (on cells) [4]): binds
- binding (murine Glut1 (on cells) [5]): binds
B1: anti-Glut1 antibody (antibody, V domains shown)
VH: QVQLQQPGSVLVRPGASVKLSCKASGYTFTGSWLHWAKQRPGQGLEWIGEIHPYSGNTNYNERFKGKATLTVDTPSSTAYVDLRSLTFEDSAVYYCAKEGGWFLRIYGMDYWGQGTSVTVSS
VL: DIVLTQSPSSLSASLGDTITITCHASQNINVWLSWYQQKPGNIPKLLIYKASNLHSGVPSRFSGSGSGTGFTLTISSLQPEDIATYYCQQGQTFPYTFGGGTRLEIK
notes: Raised by DNA immunization with hGlut1 cDNA; also called bivalent (monospecific) anti-Glut1
